# Results: the supplement of paper PMC10849652
# The chains behind the UniProt entries cited, without tags or fusion partners. Where a name states a change or a piece, a line headed by the entry shows the natural chain unless it says otherwise.
# UniProt Q5W0V3: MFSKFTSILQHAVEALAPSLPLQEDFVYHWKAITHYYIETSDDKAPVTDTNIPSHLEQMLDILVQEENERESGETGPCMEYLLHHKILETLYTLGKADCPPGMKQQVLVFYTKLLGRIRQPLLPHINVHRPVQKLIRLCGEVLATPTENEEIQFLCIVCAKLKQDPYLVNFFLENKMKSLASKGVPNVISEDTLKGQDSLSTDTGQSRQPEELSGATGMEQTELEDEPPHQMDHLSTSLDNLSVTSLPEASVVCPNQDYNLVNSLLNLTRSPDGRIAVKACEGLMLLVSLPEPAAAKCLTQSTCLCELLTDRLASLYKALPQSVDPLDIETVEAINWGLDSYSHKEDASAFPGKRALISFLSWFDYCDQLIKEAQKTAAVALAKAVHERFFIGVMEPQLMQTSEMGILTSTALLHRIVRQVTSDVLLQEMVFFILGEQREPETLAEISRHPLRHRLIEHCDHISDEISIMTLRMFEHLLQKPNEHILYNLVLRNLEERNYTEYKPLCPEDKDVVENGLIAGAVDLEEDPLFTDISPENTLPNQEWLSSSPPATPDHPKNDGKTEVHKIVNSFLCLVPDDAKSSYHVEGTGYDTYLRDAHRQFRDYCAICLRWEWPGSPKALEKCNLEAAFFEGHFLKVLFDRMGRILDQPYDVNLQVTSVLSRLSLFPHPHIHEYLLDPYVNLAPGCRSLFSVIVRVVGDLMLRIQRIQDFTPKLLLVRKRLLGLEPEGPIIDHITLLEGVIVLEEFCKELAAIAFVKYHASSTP
# UniProt Q9NRY5: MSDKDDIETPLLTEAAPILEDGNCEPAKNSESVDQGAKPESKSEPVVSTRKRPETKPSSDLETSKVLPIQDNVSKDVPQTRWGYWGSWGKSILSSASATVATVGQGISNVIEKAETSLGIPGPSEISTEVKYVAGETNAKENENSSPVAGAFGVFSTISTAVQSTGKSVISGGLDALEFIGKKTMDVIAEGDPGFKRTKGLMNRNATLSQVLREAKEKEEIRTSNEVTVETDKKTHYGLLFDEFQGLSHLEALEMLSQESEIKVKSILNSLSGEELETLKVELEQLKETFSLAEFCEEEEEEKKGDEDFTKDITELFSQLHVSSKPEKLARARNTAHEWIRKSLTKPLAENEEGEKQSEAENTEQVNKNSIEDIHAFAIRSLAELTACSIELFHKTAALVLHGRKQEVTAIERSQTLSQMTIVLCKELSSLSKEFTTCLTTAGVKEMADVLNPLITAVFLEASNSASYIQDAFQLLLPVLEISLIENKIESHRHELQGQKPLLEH
# UniProt Q96GK7: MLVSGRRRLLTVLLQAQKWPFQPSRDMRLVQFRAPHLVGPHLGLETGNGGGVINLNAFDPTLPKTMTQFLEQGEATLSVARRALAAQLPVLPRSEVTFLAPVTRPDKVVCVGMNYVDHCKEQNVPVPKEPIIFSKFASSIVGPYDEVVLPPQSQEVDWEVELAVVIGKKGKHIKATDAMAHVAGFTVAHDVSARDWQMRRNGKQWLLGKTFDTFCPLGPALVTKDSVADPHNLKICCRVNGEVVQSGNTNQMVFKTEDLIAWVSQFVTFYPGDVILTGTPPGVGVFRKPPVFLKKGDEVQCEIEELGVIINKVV
# UniProt Q01780: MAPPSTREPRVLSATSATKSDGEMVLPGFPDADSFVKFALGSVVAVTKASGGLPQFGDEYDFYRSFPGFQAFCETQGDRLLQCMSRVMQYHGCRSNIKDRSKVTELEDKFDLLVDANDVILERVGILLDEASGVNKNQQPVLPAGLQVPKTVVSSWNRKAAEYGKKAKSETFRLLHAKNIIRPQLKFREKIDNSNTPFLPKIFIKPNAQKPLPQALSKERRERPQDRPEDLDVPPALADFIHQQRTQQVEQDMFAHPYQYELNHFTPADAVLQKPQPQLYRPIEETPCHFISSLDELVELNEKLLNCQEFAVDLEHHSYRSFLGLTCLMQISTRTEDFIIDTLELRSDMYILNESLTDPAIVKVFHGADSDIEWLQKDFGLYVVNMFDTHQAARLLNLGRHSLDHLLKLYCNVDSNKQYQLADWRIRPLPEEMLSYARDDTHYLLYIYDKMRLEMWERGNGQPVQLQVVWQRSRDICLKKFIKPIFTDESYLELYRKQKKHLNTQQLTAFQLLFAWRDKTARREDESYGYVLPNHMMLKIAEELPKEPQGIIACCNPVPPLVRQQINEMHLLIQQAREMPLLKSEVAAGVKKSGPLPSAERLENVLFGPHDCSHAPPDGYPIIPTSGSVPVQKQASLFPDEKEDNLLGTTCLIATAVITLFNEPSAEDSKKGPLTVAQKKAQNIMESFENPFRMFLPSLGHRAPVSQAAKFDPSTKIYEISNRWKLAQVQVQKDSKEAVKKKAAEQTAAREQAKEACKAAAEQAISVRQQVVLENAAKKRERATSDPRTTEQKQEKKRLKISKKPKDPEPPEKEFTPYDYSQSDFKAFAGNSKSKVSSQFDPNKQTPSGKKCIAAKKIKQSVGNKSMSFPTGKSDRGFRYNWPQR
# UniProt Q6P1L5: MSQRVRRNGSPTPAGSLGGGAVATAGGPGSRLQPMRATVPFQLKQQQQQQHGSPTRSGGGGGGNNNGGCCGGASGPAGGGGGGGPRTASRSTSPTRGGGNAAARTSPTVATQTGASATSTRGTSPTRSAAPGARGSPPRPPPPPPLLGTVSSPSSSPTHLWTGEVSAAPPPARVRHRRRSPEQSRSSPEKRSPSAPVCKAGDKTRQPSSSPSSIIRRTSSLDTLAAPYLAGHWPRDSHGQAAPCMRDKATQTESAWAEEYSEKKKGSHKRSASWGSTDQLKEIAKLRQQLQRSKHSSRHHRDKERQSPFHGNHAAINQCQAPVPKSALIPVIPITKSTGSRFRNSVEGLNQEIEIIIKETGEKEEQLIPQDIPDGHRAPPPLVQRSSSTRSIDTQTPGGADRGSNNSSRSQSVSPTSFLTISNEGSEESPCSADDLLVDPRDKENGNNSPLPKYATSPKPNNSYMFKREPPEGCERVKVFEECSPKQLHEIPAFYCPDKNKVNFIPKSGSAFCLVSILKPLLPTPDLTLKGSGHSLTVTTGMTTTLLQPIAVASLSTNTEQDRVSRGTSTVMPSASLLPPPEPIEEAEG
# UniProt Q9UF33: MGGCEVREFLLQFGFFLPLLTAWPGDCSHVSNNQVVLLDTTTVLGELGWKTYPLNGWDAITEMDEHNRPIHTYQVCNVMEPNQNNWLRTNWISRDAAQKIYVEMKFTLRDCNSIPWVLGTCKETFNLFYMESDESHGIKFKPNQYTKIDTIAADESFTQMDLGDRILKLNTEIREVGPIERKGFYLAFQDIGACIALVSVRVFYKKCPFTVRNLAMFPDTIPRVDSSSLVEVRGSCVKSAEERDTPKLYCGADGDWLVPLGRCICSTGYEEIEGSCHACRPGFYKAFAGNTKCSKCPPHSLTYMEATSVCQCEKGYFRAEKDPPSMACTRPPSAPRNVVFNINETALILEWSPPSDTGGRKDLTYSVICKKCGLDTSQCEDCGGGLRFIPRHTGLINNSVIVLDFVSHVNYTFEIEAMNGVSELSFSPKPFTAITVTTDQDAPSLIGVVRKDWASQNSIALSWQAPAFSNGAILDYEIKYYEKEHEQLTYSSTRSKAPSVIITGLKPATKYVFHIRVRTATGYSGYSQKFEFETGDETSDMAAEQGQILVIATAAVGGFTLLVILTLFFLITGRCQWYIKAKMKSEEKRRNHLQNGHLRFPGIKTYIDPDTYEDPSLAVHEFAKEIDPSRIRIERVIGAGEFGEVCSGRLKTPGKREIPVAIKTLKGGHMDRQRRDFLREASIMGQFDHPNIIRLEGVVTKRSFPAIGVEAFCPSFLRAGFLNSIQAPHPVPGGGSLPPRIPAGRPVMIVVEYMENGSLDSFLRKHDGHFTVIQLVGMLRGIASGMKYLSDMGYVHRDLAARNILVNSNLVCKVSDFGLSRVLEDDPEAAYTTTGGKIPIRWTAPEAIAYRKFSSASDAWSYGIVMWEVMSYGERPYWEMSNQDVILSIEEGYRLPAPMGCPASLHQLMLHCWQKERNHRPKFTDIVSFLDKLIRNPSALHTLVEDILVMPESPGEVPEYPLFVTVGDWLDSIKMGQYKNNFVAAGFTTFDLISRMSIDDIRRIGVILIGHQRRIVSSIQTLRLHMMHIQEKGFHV
# UniProt Q8TBP5: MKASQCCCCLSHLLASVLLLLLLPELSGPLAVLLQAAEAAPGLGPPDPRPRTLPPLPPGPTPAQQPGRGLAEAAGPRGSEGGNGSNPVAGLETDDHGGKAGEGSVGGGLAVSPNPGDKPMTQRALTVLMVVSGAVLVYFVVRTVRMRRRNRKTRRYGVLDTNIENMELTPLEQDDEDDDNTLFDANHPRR
# UniProt P00740, whole entry, looked up: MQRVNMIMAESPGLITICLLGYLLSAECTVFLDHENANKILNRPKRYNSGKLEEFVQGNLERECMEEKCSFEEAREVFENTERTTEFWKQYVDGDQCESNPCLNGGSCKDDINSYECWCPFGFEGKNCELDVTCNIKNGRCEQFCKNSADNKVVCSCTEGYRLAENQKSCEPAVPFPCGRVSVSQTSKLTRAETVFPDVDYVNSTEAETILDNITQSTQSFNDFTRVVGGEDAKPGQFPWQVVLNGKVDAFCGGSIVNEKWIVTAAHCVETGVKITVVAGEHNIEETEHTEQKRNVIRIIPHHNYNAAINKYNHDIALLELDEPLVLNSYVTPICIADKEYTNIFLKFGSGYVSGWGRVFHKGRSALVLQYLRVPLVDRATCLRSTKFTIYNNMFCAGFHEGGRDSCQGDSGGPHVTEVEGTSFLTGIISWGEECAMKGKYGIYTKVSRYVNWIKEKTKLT
# UniProt Q5VUB5: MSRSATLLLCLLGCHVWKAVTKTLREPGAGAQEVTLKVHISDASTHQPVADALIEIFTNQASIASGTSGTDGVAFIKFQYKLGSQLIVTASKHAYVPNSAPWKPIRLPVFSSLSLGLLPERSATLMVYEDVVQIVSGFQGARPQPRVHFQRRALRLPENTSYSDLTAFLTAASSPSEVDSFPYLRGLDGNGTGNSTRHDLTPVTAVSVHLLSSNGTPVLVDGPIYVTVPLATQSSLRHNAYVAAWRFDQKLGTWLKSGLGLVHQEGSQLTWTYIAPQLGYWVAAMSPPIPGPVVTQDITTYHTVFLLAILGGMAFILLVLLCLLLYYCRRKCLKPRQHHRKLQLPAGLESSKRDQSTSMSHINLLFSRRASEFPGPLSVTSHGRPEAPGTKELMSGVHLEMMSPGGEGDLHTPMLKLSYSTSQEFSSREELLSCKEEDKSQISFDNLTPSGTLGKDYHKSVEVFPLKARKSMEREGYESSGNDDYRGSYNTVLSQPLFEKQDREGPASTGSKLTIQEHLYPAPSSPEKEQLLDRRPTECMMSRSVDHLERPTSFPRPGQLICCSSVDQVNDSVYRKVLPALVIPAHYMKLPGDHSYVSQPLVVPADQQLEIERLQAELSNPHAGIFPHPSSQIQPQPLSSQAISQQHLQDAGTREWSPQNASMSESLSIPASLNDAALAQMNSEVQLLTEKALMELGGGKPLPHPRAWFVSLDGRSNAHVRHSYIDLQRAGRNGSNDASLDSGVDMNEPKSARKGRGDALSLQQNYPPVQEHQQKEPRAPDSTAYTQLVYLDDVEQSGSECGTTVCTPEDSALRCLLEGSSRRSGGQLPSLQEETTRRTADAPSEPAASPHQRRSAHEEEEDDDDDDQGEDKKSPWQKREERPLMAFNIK
# UniProt Q8N0U4: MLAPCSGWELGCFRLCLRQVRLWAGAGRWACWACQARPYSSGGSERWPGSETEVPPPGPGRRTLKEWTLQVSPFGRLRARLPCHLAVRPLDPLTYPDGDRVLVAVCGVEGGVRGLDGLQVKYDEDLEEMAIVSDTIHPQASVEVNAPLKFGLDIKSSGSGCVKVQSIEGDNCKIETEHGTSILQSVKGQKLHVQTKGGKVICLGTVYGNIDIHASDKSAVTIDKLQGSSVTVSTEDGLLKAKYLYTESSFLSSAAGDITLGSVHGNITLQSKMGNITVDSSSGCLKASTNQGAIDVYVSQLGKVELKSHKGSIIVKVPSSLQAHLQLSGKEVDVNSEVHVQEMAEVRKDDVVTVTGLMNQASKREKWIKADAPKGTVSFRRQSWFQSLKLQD
# UniProt O94905: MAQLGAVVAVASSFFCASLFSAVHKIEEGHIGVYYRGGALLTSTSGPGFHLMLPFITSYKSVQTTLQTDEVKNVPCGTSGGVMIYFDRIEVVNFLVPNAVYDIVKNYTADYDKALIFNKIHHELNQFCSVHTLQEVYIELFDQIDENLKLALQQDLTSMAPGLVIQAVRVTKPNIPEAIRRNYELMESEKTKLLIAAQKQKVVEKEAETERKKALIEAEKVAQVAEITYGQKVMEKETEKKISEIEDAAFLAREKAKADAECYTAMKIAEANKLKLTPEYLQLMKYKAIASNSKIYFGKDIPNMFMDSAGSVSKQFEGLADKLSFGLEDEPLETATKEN
# This is one part of the list. Residues, ends and D or L forms follow the SMILES beside them. *: point of attachment. Cbz = O=C(OCc1ccccc1)*
# Legend:
# Test in all cases: log2 fold change, soluble protein after heating vs DMSO (PISA); higher = thermal stabilisation; K562 cells, 10 uM, 30 min; active = over 0.2 and 3.5 SD of the protein, either way, in both replicates (recomputed)
# [1] = compound: C1COCCN1CCN2C3=CC=CC=C3N=C2NC(=O)C4=CC(=CC=C4)[N+](=O)[O-] [IRAK-1-4 Inhibitor I]
# Procedure, shortened: (§1)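 K562 cells at 2×10^6 cells/mL were treated for 30 min with 10 μM compound, and aliquots were heated for 3 min over 48°C-58°C before pooling. Extraction used PBS with 0.5% NP-40 at 4°C, and soluble protein was the supernatant after 21,000xg for 90 min, measured by TMTpro 16plex LC-MS/MS with channel sums equalised. Thermal stability values, relative to control samples and from duplicates, are log2 fold changes.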
# [2] = compound: C=CC(=O)N1CCC[C@@H](n2nc(-c3ccc(Oc4ccccc4)cc3)c3c(N)ncnc32)C1 [ibrutinib]
# Procedure, shortened: as §1
# [3] = compound: CC(=O)c1cnc2ccc(-c3cc(Cl)c(O)c(Cl)c3)nc2c1N[C@H]1CC[C@H](CN(C)C)CC1
# Procedure, shortened: as §1
# [4] = compound: CC(C)(C)Cn1c(N)nc2ccc(-c3[nH]c(C(C)(C)C)nc3-c3ccc(F)cc3)nc21 [ralimetinib]
# Procedure, shortened: as §1
# [5] = compound: CC(C)(O)CC(=O)NCCn1ccc2ncnc(Nc3ccc(Oc4cccc(C(F)(F)F)c4)c(Cl)c3)c21
# Procedure, shortened: as §1
# [6] = compound: CC(C)C1=C2N=C(C=C(N2N=C1)NCC3=CC=CC=C3)NCCCCCCN
# Procedure, shortened: as §1
# [7] = compound: CC(C)C[C@@H](C=O)NC(=O)[C@H](CC(C)C)NC(=O)[C@H](CC(C)C)NC(=O)OCc1ccccc1
# Procedure, shortened: as §1
# [8] = compound: CC(C)N(C[C@H]1O[C@@H](n2cnc3c(N)ncnc32)[C@H](O)[C@@H]1O)[C@H]1C[C@@H](CCc2nc3cc(C(C)(C)C)ccc3[nH]2)C1 [pinometostat]
# Procedure, shortened: as §1
# [9] = compound: CC1=C(C2=C(C=C1)C(=O)C3=CC=CC=C3N2CCCN)C
# Procedure, shortened: as §1
# [10] = compound: CC1=C(C(CC(=O)N1)C2=CC=C(C=C2)C(F)(F)F)C(=O)NC3=C(C=C4C(=C3)C=NN4)F
# Procedure, shortened: as §1
Target,log2 fold change [1],log2 fold change [2],log2 fold change [3],log2 fold change [4],log2 fold change [5],log2 fold change [6],log2 fold change [7],log2 fold change [8],log2 fold change [9],log2 fold change [10]
EXOC1 (UniProt Q9NV70),inactive: -0.085,inactive: -0.015,inactive: -0.033,inactive: 0.112,inactive: -0.151,active: -0.419,inactive: 0.018,inactive: 0.214,inactive: 0.071,–
F11R (UniProt Q9Y624),inactive: 0.048,inactive: 0.014,inactive: -0.036,inactive: -0.025,inactive: -0.035,inactive: 0.124,inactive: 0.013,inactive: -0.053,inactive: -0.03,inactive: -0.029
ERGIC2 (UniProt Q96RQ1),inactive: -0.02,inactive: 0.019,inactive: -0.015,inactive: -0.139,inactive: -0.085,inactive: -0.133,inactive: 0.008,inactive: 0.003,inactive: 0.065,inactive: -0.022
ESS2 (UniProt Q96DF8),inactive: 0.032,inactive: 0.025,inactive: 0.031,inactive: -0.009,inactive: 0.013,inactive: 0.002,inactive: 0.136,inactive: 0.056,inactive: -0.021,–
FAM160B1 (UniProt Q5W0V3),inactive: 0.019,inactive: 0.012,inactive: 0.03,inactive: 0.005,inactive: -0.05,active: -0.285,inactive: 0.019,inactive: -0.019,inactive: -0.051,–
FAAP100 (UniProt Q0VG06),inactive: 0.026,inactive: -0.247,inactive: -0.025,inactive: -0.065,inactive: -0.085,inactive: -0.043,inactive: -0.05,inactive: 0.013,inactive: 0.055,–
FAM122A (UniProt Q96E09),inactive: 0.002,inactive: 0.016,inactive: -0.015,inactive: -0.053,inactive: 0.105,inactive: 0.066,inactive: 0.016,inactive: -0.008,inactive: -0.117,–
ERI3 (UniProt O43414),inactive: 0.03,inactive: 0.002,inactive: -0.042,inactive: -0.06,inactive: -0.05,inactive: -0.007,inactive: -0.013,inactive: -0.011,inactive: 0.03,inactive: -0.002
EXOC2 (UniProt Q96KP1),inactive: -0.092,inactive: -0.018,inactive: -0.048,inactive: 0.08,inactive: -0.052,active: -0.43,inactive: 0.027,inactive: 0.172,inactive: 0.007,–
FAM114A2 (UniProt Q9NRY5),inactive: 0.038,inactive: -0.03,inactive: 0.013,inactive: -0.017,inactive: -0.135,inactive: -0.201,inactive: 0.004,inactive: 0.005,inactive: -0.059,–
FAHD2A (UniProt Q96GK7),inactive: 0.034,inactive: 0.016,inactive: 0,inactive: -0.029,inactive: -0.012,inactive: 0.074,inactive: 0.007,inactive: -0.05,inactive: 0.026,inactive: -0.018
EXOSC10 (UniProt Q01780),inactive: 0.165,inactive: 0.033,inactive: 0.026,inactive: -0.261,inactive: -0.01,inactive: 0.213,inactive: 0.247,inactive: 0.059,inactive: 0.076,–
FAM117B (UniProt Q6P1L5),inactive: 0.238,–,inactive: -0.593,inactive: -0.177,inactive: -0.255,inactive: 0.144,inactive: 0.016,inactive: -0.175,inactive: 0.037,–
EZH2 isoform 2 (UniProt Q15910),inactive: -0.247,inactive: -0.114,inactive: 0.115,–,inactive: -0.041,inactive: -0.239,–,inactive: 0.068,inactive: -0.11,–
FAM118A (UniProt Q9NWS6),inactive: -0.009,inactive: 0.045,inactive: -0.212,inactive: -0.21,inactive: -0.207,–,inactive: -0.125,inactive: -0.054,inactive: 0.014,–
EPHA6 (UniProt Q9UF33),inactive: 0.102,inactive: 0.287,inactive: -0.183,inactive: -0.381,inactive: 0.3,–,inactive: 0.565,inactive: 0.035,inactive: -0.023,inactive: 0.119
FAM174A (UniProt Q8TBP5),inactive: -0.112,–,–,–,–,–,–,inactive: 0.004,inactive: -0.04,–

# In another format: entries from further up
Target	log2 fold change [1]	log2 fold change [2]	log2 fold change [3]	log2 fold change [4]	log2 fold change [5]	log2 fold change [6]	log2 fold change [7]	log2 fold change [8]	log2 fold change [9]	log2 fold change [10]
EXOC1 (UniProt Q9NV70)	inactive: -0.085	inactive: -0.015	inactive: -0.033	inactive: 0.112	inactive: -0.151	active: -0.419	inactive: 0.018	inactive: 0.214	inactive: 0.071	–
ERGIC2 (UniProt Q96RQ1)	inactive: -0.02	inactive: 0.019	inactive: -0.015	inactive: -0.139	inactive: -0.085	inactive: -0.133	inactive: 0.008	inactive: 0.003	inactive: 0.065	inactive: -0.022
FAAP100 (UniProt Q0VG06)	inactive: 0.026	inactive: -0.247	inactive: -0.025	inactive: -0.065	inactive: -0.085	inactive: -0.043	inactive: -0.05	inactive: 0.013	inactive: 0.055	–
FAM122A (UniProt Q96E09)	inactive: 0.002	inactive: 0.016	inactive: -0.015	inactive: -0.053	inactive: 0.105	inactive: 0.066	inactive: 0.016	inactive: -0.008	inactive: -0.117	–
ERI3 (UniProt O43414)	inactive: 0.03	inactive: 0.002	inactive: -0.042	inactive: -0.06	inactive: -0.05	inactive: -0.007	inactive: -0.013	inactive: -0.011	inactive: 0.03	inactive: -0.002
EXOC2 (UniProt Q96KP1)	inactive: -0.092	inactive: -0.018	inactive: -0.048	inactive: 0.08	inactive: -0.052	active: -0.43	inactive: 0.027	inactive: 0.172	inactive: 0.007	–
FAM114A2 (UniProt Q9NRY5)	inactive: 0.038	inactive: -0.03	inactive: 0.013	inactive: -0.017	inactive: -0.135	inactive: -0.201	inactive: 0.004	inactive: 0.005	inactive: -0.059	–
EXOSC10 (UniProt Q01780)	inactive: 0.165	inactive: 0.033	inactive: 0.026	inactive: -0.261	inactive: -0.01	inactive: 0.213	inactive: 0.247	inactive: 0.059	inactive: 0.076	–
EZH2 isoform 2 (UniProt Q15910)	inactive: -0.247	inactive: -0.114	inactive: 0.115	–	inactive: -0.041	inactive: -0.239	–	inactive: 0.068	inactive: -0.11	–
FAM174A (UniProt Q8TBP5)	inactive: -0.112	–	–	–	–	–	–	inactive: 0.004	inactive: -0.04	–

# Further results follow.

Target,log2 fold change [1],log2 fold change [2],log2 fold change [3],log2 fold change [4],log2 fold change [5],log2 fold change [6],log2 fold change [7],log2 fold change [8],log2 fold change [9],log2 fold change [10]
FAM114A1 (UniProt Q8IWE2),inactive: 0.052,–,–,inactive: 0.131,inactive: -0.076,inactive: 0.002,inactive: 0.282,inactive: -0.145,inactive: -0.094,–
ERI1 (UniProt Q8IV48),inactive: -0.223,–,–,inactive: 0.147,inactive: -0.045,–,inactive: 0.181,inactive: 0.231,inactive: -0.142,–
F9 (UniProt P00740),–,inactive: 0.275,inactive: -0.006,–,–,–,–,–,inactive: -0.023,inactive: -0.159
FAM193B (UniProt Q96PV7),inactive: -0.049,inactive: -0.266,inactive: -0.03,–,inactive: -0.05,–,–,inactive: 0.112,inactive: -0.181,–
FAM171A1 (UniProt Q5VUB5),inactive: 0.021,–,inactive: 0.099,–,inactive: 0.046,inactive: 0.24,–,inactive: 0.002,–,–
EPS15L1 (UniProt M0QY01),inactive: 0.047,–,–,–,inactive: 0.084,–,–,inactive: 0.127,–,–
FADS1 (UniProt F5GYH4),inactive: 0.02,inactive: -0.093,–,–,–,–,–,inactive: 0.075,inactive: -0.097,–
EPPK1 (UniProt P58107),inactive: -0.097,inactive: -0.102,–,inactive: 0.236,inactive: 0.085,inactive: -0.379,inactive: 0.079,inactive: 0.519,inactive: 0.671,inactive: 0.077
ESRRB isoform 1 (UniProt O95718),inactive: -0.009,inactive: 0.031,–,–,–,inactive: 0.181,–,inactive: -0.132,–,–
ESF1 (UniProt Q9H501),–,inactive: -0.207,–,inactive: 0.087,–,–,inactive: 0.376,–,–,–
FAM185A (UniProt Q8N0U4),inactive: 0.046,inactive: 0.1,inactive: -0.013,inactive: -0.047,–,inactive: 0.194,inactive: -0.145,inactive: -0.025,inactive: -0.121,inactive: 0.169
EXD2 (UniProt Q9NVH0),inactive: -0.099,–,–,inactive: 0.091,inactive: 0.164,inactive: -0.134,inactive: 0.127,inactive: 0.175,–,–
ERN1 (UniProt O75460),inactive: -0.122,–,–,inactive: -0.123,inactive: -0.163,inactive: -0.203,inactive: 0.249,inactive: 0.06,inactive: 0.084,inactive: -0.001
ETF1 isoform 2 (UniProt P62495),–,inactive: -0.066,inactive: -0.047,inactive: -0.263,–,–,inactive: 0.373,–,–,–
ERLIN2 (UniProt O94905),inactive: -0.089,inactive: 0.001,inactive: 0.058,inactive: 0.004,inactive: 0,active: -0.296,inactive: 0.035,inactive: 0.093,inactive: 0.013,–
ERICH1 (UniProt Q86X53),inactive: -0.055,–,–,–,–,–,–,inactive: 0.141,inactive: 0.074,–
ERO1B (UniProt Q86YB8),inactive: -0.091,inactive: -0.053,inactive: -0.029,–,inactive: -0.035,inactive: -0.011,–,inactive: 0.097,–,inactive: 0.065
